Some of the results follow.
Tests used:
Experiment in all cases: glycan array binding signal (z-score within array); higher = stronger binding
Conditions in all cases: glycan notation: IUPAC condensed, linker removed
[1] = molecular target: Gal(b1-3)GlcNAc(b1-2)Man(a1-3)[Gal(b1-3)GlcNAc(b1-2)Man(a1-6)]Man(b1-4)GlcNAc(b1-4)[Fuc(a1-6)]GlcNAc
How it was run: (§1)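 Columns mapping to the same glycan were averaged after glycan names were converted to IUPAC-condensed notation. The data come from 3228 arrays in the Consortium for Functional Glycomics database, limited to those with an available protein sequence. Binding is reported as a within-array Z-score averaged across arrays of one protein sequence and across linkers.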

[2] = molecular target: Gal(b1-3)GlcNAc(b1-2)Man(a1-3)[GlcNAc(b1-4)][Gal(b1-3)GlcNAc(b1-2)Man(a1-6)]Man(b1-4)GlcNAc(b1-4)GlcNAc
How it was run: as §1

[3] = molecular target: Gal(b1-3)GlcNAc(b1-2)[Gal(b1-3)GlcNAc(b1-6)]Man(a1-6)[Gal(b1-3)GlcNAc(b1-2)Man(a1-3)]Man(b1-4)GlcNAc(b1-4)GlcNAc
How it was run: as §1

[4] = molecular target: Gal(b1-3)GlcNAc(b1-3)Gal(b1-3)GlcNAc
How it was run: as §1

[5] = molecular target: Gal(b1-3)GlcNAc(b1-3)Gal(b1-4)Glc
How it was run: as §1

[6] = molecular target: Gal(b1-3)GlcNAc(b1-3)Gal(b1-4)GlcNAc
How it was run: as §1

[7] = molecular target: Gal(b1-3)GlcNAc(b1-3)Gal(b1-4)GlcNAc(b1-2)Man(a1-3)[Gal(b1-3)GlcNAc(b1-3)Gal(b1-4)GlcNAc(b1-2)Man(a1-6)]Man(b1-4)GlcNAc(b1-4)GlcNAc
How it was run: as §1

[8] = molecular target: Gal(b1-3)GlcNAc(b1-3)Gal(b1-4)GlcNAc(b1-2)[Gal(b1-3)GlcNAc(b1-3)Gal(b1-4)GlcNAc(b1-6)]Man(a1-6)[Gal(b1-3)GlcNAc(b1-3)Gal(b1-4)GlcNAc(b1-2)Man(a1-3)]Man(b1-4)GlcNAc(b1-4)[Fuc(a1-6)]GlcNAc
How it was run: as §1

[9] = molecular target: Gal(b1-3)GlcNAc(b1-3)Gal(b1-4)GlcNAc(b1-3)Gal(b1-4)GlcNAc(b1-2)[Gal(b1-3)GlcNAc(b1-3)Gal(b1-4)GlcNAc(b1-3)Gal(b1-4)GlcNAc(b1-6)]Man(a1-6)[Gal(b1-3)GlcNAc(b1-3)Gal(b1-4)GlcNAc(b1-3)Gal(b1-4)GlcNAc(b1-2)Man(a1-3)]Man(b1-4)GlcNAc(b1-4)[Fuc(a1-6)]GlcNAc
How it was run: as §1

[10] = molecular target: Gal(b1-3)GlcNAc(b1-3)Gal(b1-4)GlcNAc(b1-6)[Gal(b1-3)GlcNAc(b1-3)]Gal(b1-4)Glc
How it was run: as §1

[11] = molecular target: Gal(b1-3)GlcNAc(b1-3)Gal(b1-4)[Fuc(a1-3)]GlcNAc
How it was run: as §1

[12] = molecular target: Gal(b1-3)GlcNAc(b1-3)Gal(b1-4)[Fuc(a1-3)]GlcNAc(b1-6)[Gal(b1-3)GlcNAc(b1-3)]Gal(b1-4)Glc
How it was run: as §1

[13] = molecular target: Gal(b1-3)GlcNAc(b1-3)GalNAc
How it was run: as §1

[14] = molecular target: Gal(b1-3)GlcNAc(b1-6)Gal(b1-4)GlcNAc
How it was run: as §1

[15] = molecular target: Gal(b1-3)GlcNAc(b1-6)GalNAc
How it was run: as §1

[16] = molecular target: Gal(b1-3)GlcNAc(b1-6)[Gal(b1-3)]GalNAc
How it was run: as §1

Gal(b1-3)GlcNAc6S = molecular target: Gal(b1-3)GlcNAc6S
How it was run: as §1

[17] = molecular target: Gal(b1-3)[Fuc(a1-4)]GlcNAc
How it was run: as §1

[18] = molecular target: Gal(b1-3)[Fuc(a1-4)]GlcNAc(b1-2)Man
How it was run: as §1

[19] = molecular target: Gal(b1-3)[Fuc(a1-4)]GlcNAc(b1-2)Man(a1-3)[Gal(b1-3)[Fuc(a1-4)]GlcNAc(b1-2)Man(a1-6)]Man(b1-4)GlcNAc(b1-4)[Fuc(a1-6)]GlcNAc
How it was run: as §1

[20] = molecular target: Gal(b1-3)[Fuc(a1-4)]GlcNAc(b1-3)Gal(b1-3)[Fuc(a1-4)]GlcNAc
How it was run: as §1

[21] = molecular target: Gal(b1-3)[Fuc(a1-4)]GlcNAc(b1-3)Gal(b1-4)[Fuc(a1-3)]GlcNAc
How it was run: as §1

[22] = molecular target: Gal(b1-3)[Fuc(a1-4)]GlcNAc(b1-6)GalNAc
How it was run: as §1

[23] = molecular target: Gal(b1-3)[GlcNAc(b1-6)]GalNAc
How it was run: as §1

[24] = molecular target: Gal(b1-3)[Neu5Ac(a2-6)]GalNAc
How it was run: as §1

[25] = molecular target: Gal(b1-3)[Neu5Ac(a2-6)]GlcNAc(b1-4)Gal(b1-4)Glc
How it was run: as §1

[26] = molecular target: Gal(b1-3)[Neu5Ac(b2-6)]GalNAc
How it was run: as §1

Gal(b1-4)Gal = molecular target: Gal(b1-4)Gal
How it was run: as §1

[27] = molecular target: Gal(b1-4)GalNAc(a1-3)[Fuc(a1-2)]Gal(b1-4)GlcNAc
How it was run: as §1

[28] = molecular target: Gal(b1-4)GalNAc(b1-3)[Fuc(a1-2)]Gal(b1-4)GlcNAc
How it was run: as §1

B1: PX14343F-bfa-562-20-562 (Bacteroides fragilis) (protein)
chain: CDDFLDSFPQDTVTNENFWKSKEDADKVLVDIYASLLPKDAIFFDEAMSDNAYLVWDWWGGAQQVANGSYTTSGEIPTNRWNGSYEVIRKCWFLLEGIEKIEDISEQDKNKIIGETYFMLAYNYYVLTSYFGDVPLVTKTLAIPESKQLVRTPKAEVVDYAINKLKEAAVMLEGLSQEKGRVTADACRFLIARMYLYNGDYSNVLETVKLLEGKYQLYREGDTPYEDLFSGVAENSCEVILSVVCDKRVGEIYTSHGGNGIMLLKGITGEDPYRGVTPSGSLVDAYPMADGRLIHEAGSSYDPKKPYEGRDPRFYQSIVYPTGQIKYLDVETGTVKERLYDPEDPTTVPEHQYNYSQPSATGYMWNKYIDYSVYAMNSVWDCTNDIIVFRYADVLLMKAEALLQTKGESAKEEVCNLIDQLRDRCSCGRVHRENYNSKDELMELLKNERRIELANEGLRYMDLIRWKDAEKNTIVTGVGLTGQMYGAYMRKDGVGKDDKTVDVDNTPRRYIETRYFNASKGYLFPIPQKERDLNPNLTQNPNW
- glycan array binding signal (z-score) [1]: 0.346
- glycan array binding signal (z-score) [2]: 0.56
- glycan array binding signal (z-score) [3]: -0.409
- glycan array binding signal (z-score) [4]: 0.064
- glycan array binding signal (z-score) [5]: -0.151
- glycan array binding signal (z-score) [6]: 0.027
- glycan array binding signal (z-score) [7]: -0.187
- glycan array binding signal (z-score) [8]: 1.83
- glycan array binding signal (z-score) [9]: 1.38
- glycan array binding signal (z-score) [10]: -0.681
- glycan array binding signal (z-score) [11]: -0.916
- glycan array binding signal (z-score) [12]: -0.809
- glycan array binding signal (z-score) [13]: -0.73
- glycan array binding signal (z-score) [14]: -0.369
- glycan array binding signal (z-score) [15]: -0.588
- glycan array binding signal (z-score) [16]: 0.216
- glycan array binding signal (z-score) (Gal(b1-3)GlcNAc6S): -0.201
- glycan array binding signal (z-score) [17]: -0.027
- glycan array binding signal (z-score) [18]: 0.213
- glycan array binding signal (z-score) [19]: -0.279
- glycan array binding signal (z-score) [20]: -0.334
- glycan array binding signal (z-score) [21]: -0.432
- glycan array binding signal (z-score) [22]: -0.408
- glycan array binding signal (z-score) [23]: -0.267
- glycan array binding signal (z-score) [24]: -0.479
- glycan array binding signal (z-score) [25]: -0.546
- glycan array binding signal (z-score) [26]: -0.885
- glycan array binding signal (z-score) (Gal(b1-4)Gal): -0.051
- glycan array binding signal (z-score) [27]: -0.735
- glycan array binding signal (z-score) [28]: -1.05

From the supplement of paper PMC8728848
